The supplement of paper PMC12823440, “Inhibitors supercharge kinase turnover through native proteolytic circuits” (Nature, 2025)
Counter-ions that a name gives are not always drawn. The list shows a part of the results. The calls rarely recur for the same compound in another form.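 Kinases were expressed as nanoluciferase fusions in K562 cells and luminescence was read every 4 h between 2 and 18 h as percent of control, DMSO set to 100% and a positive control to 0%. A time point counts as decreased when the signal drops significantly (2 sigma). The hit call is the authors' own, does not follow from the count of time points alone, and its rule is not shown.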

By UniProt entry, the sequences of proteins in these tests, tags left out.
UniProt P00519, whole entry: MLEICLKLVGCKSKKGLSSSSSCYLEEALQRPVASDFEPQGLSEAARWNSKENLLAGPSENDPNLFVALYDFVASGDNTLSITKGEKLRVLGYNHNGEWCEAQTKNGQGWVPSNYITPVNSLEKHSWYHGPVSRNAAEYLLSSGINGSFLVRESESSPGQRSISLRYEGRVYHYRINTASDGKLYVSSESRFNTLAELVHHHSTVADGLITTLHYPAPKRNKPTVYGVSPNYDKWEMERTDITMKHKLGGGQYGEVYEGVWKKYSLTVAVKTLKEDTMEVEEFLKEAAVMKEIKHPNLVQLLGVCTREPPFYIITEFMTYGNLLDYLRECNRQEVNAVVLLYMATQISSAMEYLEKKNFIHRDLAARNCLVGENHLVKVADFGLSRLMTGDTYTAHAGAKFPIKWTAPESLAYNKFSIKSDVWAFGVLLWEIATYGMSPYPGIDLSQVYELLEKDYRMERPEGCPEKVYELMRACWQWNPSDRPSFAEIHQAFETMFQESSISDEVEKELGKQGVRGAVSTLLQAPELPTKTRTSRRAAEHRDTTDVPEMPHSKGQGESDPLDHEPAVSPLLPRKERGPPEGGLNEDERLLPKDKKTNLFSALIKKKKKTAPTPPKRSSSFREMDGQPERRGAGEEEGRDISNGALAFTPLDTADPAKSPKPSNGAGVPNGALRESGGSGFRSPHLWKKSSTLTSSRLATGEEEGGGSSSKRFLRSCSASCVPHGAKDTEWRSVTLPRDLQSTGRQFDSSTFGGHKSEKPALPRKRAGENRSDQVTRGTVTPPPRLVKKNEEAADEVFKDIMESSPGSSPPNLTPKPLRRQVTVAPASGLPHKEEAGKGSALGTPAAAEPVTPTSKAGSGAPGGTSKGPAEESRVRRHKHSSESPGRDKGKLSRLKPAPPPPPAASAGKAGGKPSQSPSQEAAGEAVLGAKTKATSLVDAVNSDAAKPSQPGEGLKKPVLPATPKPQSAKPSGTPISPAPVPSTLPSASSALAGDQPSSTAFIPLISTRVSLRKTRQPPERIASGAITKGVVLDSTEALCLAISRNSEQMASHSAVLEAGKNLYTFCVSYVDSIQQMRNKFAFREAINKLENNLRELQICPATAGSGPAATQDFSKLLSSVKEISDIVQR

What follows are molecules tested against ABL1 (UniProt P00519) (assay: kinase-Nluc reporter destabilization hit call (1 = scored as downregulated) (binary); higher = compound decreases kinase abundance). Details: K562; 2-18 h.

kinase-Nluc reporter destabilization hit call, inactive:
CCc1ccc(C(=O)COc2ccc(CC3SC(=O)NC3=O)cc2)nc1 (centres undefined) (10 µM) 0, Cc1ccc(-c2ccc3c(ccc4sc5c(c43)NC[C@@H](C)NC5=O)n2)cn1 (10 µM) 0, CC[C@H](Nc1ncnc2[nH]cnc12)c1oc2ccccc2c(=O)c1-c1cccc(F)c1 [Tenalisib] (10 µM) 0, CCCC(=O)Nc1nc2c(ncn2[C@@H]2O[C@@H]3COP(=O)(O)O[C@H]3[C@H]2OC(=O)CCC)c(=O)[nH]1 [Dibutyryl-cGMP (sodium)] (10 µM) 0, CC(C)c1cnn2c(NCc3ccccc3-n3cccn3)nc(OC3CCCNC3)nc12 (centres undefined) (2.5 µM) 0, OCCN(CCO)c1ccc(C(c2ccc(Cl)cc2)c2ccc(N(CCO)CCO)cc2)cc1 (10 µM) 0, CCCCNC(=N)NC(=N)N [Buformin (hydrochloride)] (2.5 µM) 0, Fc1c(Br)cccc1Nc1ncnc2cc3c(cc12)OCCO3 (2.5 µM) 0, Cc1cc(Nc2nc(N[C@@H](C)c3ncc(F)cn3)ncc2Cl)[nH]n1 (10 µM) 0, Cc1cc(Nc2cc(CN3CCOCC3)c3nc(C)c(Cc4ccc(Cl)cc4F)n3n2)n[nH]1 [Gandotinib] (2.5 µM) 0, COc1cc(N2CCC(N(C)C)CC2)ccc1Nc1ncc(Cl)c(Nc2ccccc2P(C)(C)=O)n1 (2.5 µM) 0, Nc1[nH]c(=O)nc2c1ncn2[C@@H]1O[C@H](CO)[C@@H](O)[C@H]1O [Crotonoside] (10 µM) 0, Cn1cc(-c2ccc(F)c(C(F)(F)F)c2)nc1C1CCN(c2ncnc3[nH]ncc23)CC1 (10 µM) 0, CCOc1ccccc1C=C1C(=O)Nc2ccccc21 (10 µM) 0, CC(C)(C)C(=O)N1N=CC[C@H]1c1ccccc1 (10 µM) 0, COc1ccc(CCNc2ncc3c(=O)n(-c4cccc(F)c4)c(=O)[nH]c3n2)cc1OC (2 µM) 0, Cc1ccc(-c2nn(C(C)(C)CNC(=O)c3ccncc3)c3ncnc(N)c23)cc1 (2.5 µM) 0, CNC(=O)c1ccc(-c2cnc3cnc(-c4ccccc4)cn23)cc1 (10 µM) 0, CCn1nc(C2CCN(C(=O)CCO)CC2)nc1-c1cnc(N)c(-c2nnc(C(C)(C)C)o2)n1 (10 µM) 0, CCCCCCCC/C=C\CCCCCCCC(=O)NCC(=O)O [N-Oleoyl glycine] (10 µM) 0, CC1(COc2ccc3c(c2)ncn3-c2ccc3cccc(N4CCC(N)CC4)c3n2)COC1 [Crenolanib] (2.5 µM) 0, CC(CCc1ccccn1)(CCc1ccccn1)C(=O)c1ccccc1 (10 µM) 0, COc1cc(-c2cc(-c3cc(OC)c(OC)c(OC)c3)cc(C(F)P(=O)(OCOC(=O)C(C)(C)C)OCOC(=O)C(C)(C)C)c2)cc(OC)c1OC (centres undefined) [Stafia-1-dipivaloyloxymethyl ester] (2.5 µM) 0, CC1(N)CCN(c2cnc3c(-c4cccc(Cl)c4Cl)[nH]nc3n2)CC1 (2.5 µM) 0, CC(C)(O)[C@@H]1CC[C@](C)([C@H]2[C@@H](O)C[C@@]3(C)[C@@H]4C[C@H](O[C@@H]5O[C@H](CO)[C@@H](O)[C@H](O)[C@H]5O)[C@H]5C(C)(C)[C@@H](O[C@@H]6OC[C@@H](O)[C@H](O)[C@H]6O[C@@H]6O[C@H](CO)[C@@H](O)[C@H](O)[C@H]6O)CC[C@@]56C[C@@]46CC[C@]23C)O1 [Astragaloside VI] (10 µM) 0, Cc1nc(NC(=O)NCCc2nnn(CCF)n2)sc1-c1ccc(S(C)(=O)=O)c(F)c1 (10 µM) 0, CCN(C)C(=O)c1ccc2c(C(=Nc3ccc(CN4CCCCC4)cc3)c3ccccc3)c(O)[nH]c2c1 (2.5 µM) 0, CC(=O)Nc1nc(C)c(-c2nc(N3CCCC(O)C3)no2)s1 (centres undefined) (10 µM) 0, COc1c(O)cc2oc3cc(O)c(CC=C(C)C)c(O)c3c(=O)c2c1CCC(C)(C)O [Garcinone D] (2.5 µM) 0
